Literature values in patent publication US20210137911A1, “NOVEL CHRONOTHERAPY BASED ON CIRCADIAN RHYTHMS” (THE TRUSTEES OF THE UNIVERSITY OF PENNSYLVANIA, priority 2014, published 2021).

Conditions: half-life of therapeutic compound as listed in Table 1; cited from earlier work

COC(=O)C1=C(C)NC(C)=C(C(=O)OC)C1c1ccccc1[N+](=O)[O-] [Nifedipine]
½ Life: 2 h
